This passage reports binding results from patent publication US20240092867A1.

The chains behind the UniProt entries cited, without tags or fusion partners. Where a name states a change or a piece, a line headed by the entry shows the natural chain unless it says otherwise. A line that says so, or that is headed by a name, gives the form on record, which may keep a tag or linker. Residues count along the entry.
recombinant human VEGF-A145 (P15692, form named): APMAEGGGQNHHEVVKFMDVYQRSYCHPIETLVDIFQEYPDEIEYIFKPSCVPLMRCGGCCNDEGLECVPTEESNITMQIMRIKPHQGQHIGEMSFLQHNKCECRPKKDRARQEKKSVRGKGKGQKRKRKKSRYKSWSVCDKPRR
VEGF-A in human serum (P15692, form named): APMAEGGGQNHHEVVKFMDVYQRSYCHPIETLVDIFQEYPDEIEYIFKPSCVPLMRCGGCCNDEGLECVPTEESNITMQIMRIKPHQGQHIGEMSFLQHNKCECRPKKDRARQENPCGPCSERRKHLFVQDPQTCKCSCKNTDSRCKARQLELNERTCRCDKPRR
UniProt P05019, residues 49-118: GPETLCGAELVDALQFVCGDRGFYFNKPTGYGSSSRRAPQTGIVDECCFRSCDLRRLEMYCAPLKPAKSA
placental growth factor (PlGF)-2 (P49763, form named): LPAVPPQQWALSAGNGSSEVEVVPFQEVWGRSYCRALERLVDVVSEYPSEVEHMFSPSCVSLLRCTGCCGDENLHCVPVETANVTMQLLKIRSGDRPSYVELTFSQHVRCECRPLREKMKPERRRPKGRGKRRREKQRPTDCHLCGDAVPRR
CXCL-12γ (P48061, form named): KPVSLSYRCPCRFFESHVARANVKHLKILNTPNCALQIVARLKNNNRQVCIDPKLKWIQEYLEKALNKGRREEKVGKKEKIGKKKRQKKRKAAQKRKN
UniProt P01127, residues 82-190: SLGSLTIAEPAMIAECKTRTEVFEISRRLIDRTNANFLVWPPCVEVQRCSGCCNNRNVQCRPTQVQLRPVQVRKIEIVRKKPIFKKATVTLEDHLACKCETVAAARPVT
UniProt P09038, residues 143-288: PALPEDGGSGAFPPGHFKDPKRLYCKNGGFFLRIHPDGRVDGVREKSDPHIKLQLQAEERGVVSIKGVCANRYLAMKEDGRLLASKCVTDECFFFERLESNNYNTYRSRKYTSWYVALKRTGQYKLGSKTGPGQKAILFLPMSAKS
UniProt O76093, residues 28-207: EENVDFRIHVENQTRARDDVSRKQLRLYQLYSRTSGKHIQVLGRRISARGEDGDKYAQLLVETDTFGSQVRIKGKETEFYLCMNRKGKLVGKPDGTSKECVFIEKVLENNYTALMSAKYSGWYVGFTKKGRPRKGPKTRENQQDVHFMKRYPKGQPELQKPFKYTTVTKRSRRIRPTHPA
UniProt P04275: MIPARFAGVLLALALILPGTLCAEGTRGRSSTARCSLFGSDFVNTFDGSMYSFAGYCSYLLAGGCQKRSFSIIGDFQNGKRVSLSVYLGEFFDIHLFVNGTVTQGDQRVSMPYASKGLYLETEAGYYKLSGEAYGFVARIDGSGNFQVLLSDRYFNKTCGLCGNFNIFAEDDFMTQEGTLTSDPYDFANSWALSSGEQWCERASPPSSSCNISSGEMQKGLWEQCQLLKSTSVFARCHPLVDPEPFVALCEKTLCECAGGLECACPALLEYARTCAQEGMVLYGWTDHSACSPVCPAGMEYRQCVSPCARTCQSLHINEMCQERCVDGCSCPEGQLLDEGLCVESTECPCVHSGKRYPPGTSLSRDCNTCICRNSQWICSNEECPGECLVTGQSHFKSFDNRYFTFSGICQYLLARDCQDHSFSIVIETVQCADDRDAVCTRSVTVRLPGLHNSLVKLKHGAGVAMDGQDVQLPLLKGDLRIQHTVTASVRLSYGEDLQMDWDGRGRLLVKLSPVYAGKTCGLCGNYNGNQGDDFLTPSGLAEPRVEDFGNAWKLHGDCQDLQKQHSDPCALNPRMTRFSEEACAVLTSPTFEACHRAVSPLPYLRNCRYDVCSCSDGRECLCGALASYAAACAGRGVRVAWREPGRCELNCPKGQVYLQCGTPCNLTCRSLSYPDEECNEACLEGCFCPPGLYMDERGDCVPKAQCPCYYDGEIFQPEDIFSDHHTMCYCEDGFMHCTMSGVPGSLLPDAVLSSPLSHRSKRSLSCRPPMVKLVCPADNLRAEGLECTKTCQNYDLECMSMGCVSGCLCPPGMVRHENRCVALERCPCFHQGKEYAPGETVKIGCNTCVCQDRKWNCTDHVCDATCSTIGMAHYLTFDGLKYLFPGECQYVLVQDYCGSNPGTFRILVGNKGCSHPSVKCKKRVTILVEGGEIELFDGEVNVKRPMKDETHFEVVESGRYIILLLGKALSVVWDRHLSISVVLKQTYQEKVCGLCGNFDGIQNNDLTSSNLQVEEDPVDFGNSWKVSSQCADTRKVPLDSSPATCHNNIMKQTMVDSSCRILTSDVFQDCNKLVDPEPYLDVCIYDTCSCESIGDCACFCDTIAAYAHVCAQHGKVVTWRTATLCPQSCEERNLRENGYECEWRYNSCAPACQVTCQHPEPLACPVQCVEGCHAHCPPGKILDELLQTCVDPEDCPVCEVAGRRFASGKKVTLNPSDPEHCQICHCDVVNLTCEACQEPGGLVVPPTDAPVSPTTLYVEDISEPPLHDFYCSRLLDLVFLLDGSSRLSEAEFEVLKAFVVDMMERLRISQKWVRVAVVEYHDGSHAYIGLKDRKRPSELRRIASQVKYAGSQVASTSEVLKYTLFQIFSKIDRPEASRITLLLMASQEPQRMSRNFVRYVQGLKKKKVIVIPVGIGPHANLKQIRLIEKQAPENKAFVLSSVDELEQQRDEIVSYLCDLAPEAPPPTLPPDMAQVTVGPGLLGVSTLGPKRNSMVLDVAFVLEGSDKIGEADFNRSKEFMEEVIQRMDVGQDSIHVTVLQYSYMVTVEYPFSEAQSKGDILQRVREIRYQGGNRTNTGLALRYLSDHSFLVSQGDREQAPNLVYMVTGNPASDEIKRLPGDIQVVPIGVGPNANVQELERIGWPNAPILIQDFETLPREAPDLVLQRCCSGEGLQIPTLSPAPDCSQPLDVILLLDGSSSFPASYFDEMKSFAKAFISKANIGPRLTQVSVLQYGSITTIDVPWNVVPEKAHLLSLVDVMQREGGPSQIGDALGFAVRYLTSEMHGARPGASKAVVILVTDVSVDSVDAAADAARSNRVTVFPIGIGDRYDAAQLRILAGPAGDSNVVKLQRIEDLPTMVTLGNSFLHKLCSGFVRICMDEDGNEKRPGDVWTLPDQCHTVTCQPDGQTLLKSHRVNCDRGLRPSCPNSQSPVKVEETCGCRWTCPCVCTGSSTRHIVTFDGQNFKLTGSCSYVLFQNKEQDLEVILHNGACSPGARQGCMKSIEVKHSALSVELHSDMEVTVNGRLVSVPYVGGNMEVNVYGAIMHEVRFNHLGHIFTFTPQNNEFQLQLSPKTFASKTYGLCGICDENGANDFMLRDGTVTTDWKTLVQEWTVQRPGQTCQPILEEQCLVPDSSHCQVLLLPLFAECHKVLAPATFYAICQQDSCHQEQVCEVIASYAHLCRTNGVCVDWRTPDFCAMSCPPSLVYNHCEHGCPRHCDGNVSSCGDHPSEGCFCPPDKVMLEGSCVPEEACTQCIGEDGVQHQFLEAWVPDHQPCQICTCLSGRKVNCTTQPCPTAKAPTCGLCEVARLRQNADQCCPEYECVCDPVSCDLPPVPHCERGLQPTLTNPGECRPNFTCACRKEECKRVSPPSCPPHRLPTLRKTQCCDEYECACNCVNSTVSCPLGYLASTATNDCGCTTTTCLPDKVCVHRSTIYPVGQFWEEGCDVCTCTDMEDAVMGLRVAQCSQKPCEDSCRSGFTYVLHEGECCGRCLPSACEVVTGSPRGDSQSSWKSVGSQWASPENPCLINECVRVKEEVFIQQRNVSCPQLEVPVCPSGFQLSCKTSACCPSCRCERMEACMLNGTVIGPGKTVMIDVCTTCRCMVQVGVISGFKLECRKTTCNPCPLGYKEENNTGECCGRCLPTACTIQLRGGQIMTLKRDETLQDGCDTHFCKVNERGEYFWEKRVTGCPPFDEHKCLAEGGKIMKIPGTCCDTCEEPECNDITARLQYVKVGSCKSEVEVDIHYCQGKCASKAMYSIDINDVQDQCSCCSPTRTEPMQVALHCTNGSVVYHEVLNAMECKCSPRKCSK
vWF in serum of a type 2B vWD patient carrying the R1341Q mutation (P04275, form named): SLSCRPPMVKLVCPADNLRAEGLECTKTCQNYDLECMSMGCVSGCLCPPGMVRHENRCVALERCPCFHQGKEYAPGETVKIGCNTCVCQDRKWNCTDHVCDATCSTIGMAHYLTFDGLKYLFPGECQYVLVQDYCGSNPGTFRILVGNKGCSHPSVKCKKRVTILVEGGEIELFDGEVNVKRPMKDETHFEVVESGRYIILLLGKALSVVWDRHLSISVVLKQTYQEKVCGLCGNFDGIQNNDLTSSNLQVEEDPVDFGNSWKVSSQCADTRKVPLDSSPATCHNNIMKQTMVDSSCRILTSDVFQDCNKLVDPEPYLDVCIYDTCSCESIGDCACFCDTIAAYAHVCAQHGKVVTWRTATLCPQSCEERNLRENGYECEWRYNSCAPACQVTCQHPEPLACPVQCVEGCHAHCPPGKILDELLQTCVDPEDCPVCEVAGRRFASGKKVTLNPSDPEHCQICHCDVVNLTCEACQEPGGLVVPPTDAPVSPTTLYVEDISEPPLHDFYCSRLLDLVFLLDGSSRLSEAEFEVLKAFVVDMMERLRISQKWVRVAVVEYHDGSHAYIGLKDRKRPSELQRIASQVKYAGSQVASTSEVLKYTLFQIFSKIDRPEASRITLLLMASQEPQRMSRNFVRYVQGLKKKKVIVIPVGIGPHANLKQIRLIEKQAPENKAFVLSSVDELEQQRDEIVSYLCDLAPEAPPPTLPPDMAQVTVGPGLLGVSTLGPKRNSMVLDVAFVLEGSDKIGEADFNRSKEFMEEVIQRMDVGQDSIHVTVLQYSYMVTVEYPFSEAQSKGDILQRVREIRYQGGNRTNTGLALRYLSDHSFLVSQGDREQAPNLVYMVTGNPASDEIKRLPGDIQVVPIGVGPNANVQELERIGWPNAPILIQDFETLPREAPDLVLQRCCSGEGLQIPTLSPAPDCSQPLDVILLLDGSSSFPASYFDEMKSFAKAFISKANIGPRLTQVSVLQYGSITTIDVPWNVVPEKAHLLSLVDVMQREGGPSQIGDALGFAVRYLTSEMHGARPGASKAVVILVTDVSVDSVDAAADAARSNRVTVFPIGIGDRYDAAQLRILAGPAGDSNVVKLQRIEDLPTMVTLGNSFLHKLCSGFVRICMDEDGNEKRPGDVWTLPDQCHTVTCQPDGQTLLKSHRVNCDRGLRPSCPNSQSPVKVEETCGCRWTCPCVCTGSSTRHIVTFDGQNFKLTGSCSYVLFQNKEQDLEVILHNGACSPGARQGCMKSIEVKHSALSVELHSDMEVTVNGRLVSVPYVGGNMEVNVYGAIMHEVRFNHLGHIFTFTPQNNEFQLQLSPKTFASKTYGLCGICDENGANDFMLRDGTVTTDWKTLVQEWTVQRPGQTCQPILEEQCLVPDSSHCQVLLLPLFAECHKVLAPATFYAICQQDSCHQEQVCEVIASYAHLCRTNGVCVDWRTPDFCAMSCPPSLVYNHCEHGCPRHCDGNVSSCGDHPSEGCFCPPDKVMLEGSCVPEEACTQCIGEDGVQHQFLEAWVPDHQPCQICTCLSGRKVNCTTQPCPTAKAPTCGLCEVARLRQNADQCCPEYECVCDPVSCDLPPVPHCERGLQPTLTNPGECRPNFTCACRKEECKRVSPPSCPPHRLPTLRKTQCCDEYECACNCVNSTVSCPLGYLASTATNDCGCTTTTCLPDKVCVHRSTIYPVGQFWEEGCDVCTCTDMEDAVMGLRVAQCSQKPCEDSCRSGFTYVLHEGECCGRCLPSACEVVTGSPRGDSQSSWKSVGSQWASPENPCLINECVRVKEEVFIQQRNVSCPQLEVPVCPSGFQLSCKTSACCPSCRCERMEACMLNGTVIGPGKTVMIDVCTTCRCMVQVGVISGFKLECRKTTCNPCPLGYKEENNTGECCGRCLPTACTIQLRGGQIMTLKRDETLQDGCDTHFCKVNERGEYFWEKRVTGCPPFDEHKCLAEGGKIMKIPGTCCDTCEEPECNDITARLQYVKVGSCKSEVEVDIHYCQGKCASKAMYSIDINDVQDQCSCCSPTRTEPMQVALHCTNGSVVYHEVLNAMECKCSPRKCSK

Results are given in words; binding and its absence hold for the method and conditions named. Some entries that bind do so weakly or less than the wild type.

In experiment [1] the target is recombinant human VEGF-A145 (human) (UniProt P15692). The experiment in a line: ELISA, vWF coated 50 nM, VEGF-A 1 µg/mL. On the technique in general: ELISA stands for enzyme-linked immunosorbent assay.
For experiment [2], the target named is vascular endothelial growth factor (VEGF)-A165 (human) (UniProt P15692). Kind of experiment: ELISA, vWF coated 50 nM, VEGF-A 1 µg/mL.
The target in experiment [3] is recombinant human VEGF-A145 (human) (UniProt P15692). The experiment in a line: ELISA; vWF forms coated at 50 nM, 1 µg/mL VEGF-A145 in solution, detected with anti-VEGF-A antibody [panel C].
Experiment [4] addresses insulin-like growth factor (IGF)-1 (UniProt P05019). Kind of experiment: ELISA, GF coated, laminin 10 nM.
Experiment [5] deals with T1, brain-derived neurotrophic factor (BDNF) (UniProt P23560).
T1 sequence (looked up): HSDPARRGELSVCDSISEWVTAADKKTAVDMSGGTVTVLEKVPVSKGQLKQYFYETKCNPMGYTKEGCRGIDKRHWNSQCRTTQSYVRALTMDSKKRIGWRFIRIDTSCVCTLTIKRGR
Kind of experiment: ELISA, GF coated, laminin 10 nM.

The target of experiment [6] is T2, fibroblast growth factor (FGF)-7 (UniProt P21781).
T2 sequence (looked up): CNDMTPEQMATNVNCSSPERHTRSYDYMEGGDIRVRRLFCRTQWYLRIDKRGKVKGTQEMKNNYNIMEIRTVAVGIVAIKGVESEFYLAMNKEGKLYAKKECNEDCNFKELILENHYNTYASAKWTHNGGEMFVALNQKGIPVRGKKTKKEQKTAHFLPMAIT
The experiment in a line: ELISA, GF coated, laminin 10 nM.

The target in experiment [7] is vascular endothelial growth factor (VEGF)-A165 (human) (UniProt P15692). Kind of experiment: ELISA, GF coated, laminin 10 nM.
Experiment [8] deals with placental growth factor (PlGF)-2 (human) (UniProt P49763). The experiment in a line: ELISA, GF coated, laminin 10 nM.
In another experiment the target is CXCL-12γ (human) (UniProt P48061). Kind of experiment: ELISA, GF coated, laminin 10 nM.
The target in experiment [9] is T3, bone morphogenetic protein (BMP)-2 (UniProt P12643).
T3 sequence (looked up): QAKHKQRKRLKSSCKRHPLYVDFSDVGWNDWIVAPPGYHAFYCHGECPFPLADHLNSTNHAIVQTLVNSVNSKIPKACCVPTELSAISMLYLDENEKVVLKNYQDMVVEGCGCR
Kind of experiment: ELISA, GF coated, laminin 10 nM.

For experiment [10], the target named is platelet-derived growth factor (PDGF)-BB (human) (UniProt P01127). The experiment in a line: ELISA, GF coated, laminin 10 nM.
For experiment [11], the target named is fibroblast growth factor (FGF)-2 (human) (UniProt P09038). Kind of experiment: ELISA, GF coated, laminin 10 nM.
Experiment [12] concerns the target fibroblast growth factor (FGF)-18 (UniProt O76093). Kind of experiment: ELISA, GF coated, laminin 10 nM.
Experiment [13] deals with T4, bone morphogenetic protein (BMP)-3 (UniProt P12645).
T4 sequence (looked up): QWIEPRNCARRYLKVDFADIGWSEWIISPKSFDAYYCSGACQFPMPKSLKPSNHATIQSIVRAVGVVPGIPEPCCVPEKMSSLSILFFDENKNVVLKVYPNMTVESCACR
The experiment in a line: ELISA, GF coated, laminin 10 nM.

The next experiment deals with T5, neurotrophin (NT)-3 (UniProt P20783).
T5 sequence (looked up): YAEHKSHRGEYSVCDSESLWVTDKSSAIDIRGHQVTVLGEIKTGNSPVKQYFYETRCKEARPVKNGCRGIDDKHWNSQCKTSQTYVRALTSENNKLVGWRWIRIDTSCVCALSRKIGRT
The experiment in a line: ELISA, GF coated, laminin 10 nM.

Experiment [14] concerns the target T6, fibroblast growth factor (FGF)-10 (UniProt O15520).
T6 sequence (looked up): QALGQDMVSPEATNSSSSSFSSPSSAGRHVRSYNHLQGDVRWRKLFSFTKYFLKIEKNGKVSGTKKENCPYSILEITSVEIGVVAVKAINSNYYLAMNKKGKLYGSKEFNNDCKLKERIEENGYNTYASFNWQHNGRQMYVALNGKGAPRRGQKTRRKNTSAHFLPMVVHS
Kind of experiment: ELISA, GF coated, laminin 10 nM.

The target in experiment [15] is vascular endothelial growth factor (VEGF)-A165 (human) (UniProt P15692). The experiment in a line: sandwich ELISA on serum, anti-vWF capture, anti-GF detection (GF of the serum).
Experiment [16] addresses platelet-derived growth factor (PDGF)-BB (human) (UniProt P01127). The description is as above.
For experiment [17], the target named is fibroblast growth factor (FGF)-2 (human) (UniProt P09038). The description is as above.
The target is the same in experiment [18]. The experiment in a line: ELISA; plate coated with 10 µg/mL laminin, 1 µg/mL FGF-2 in solution without or with 10 µM heparin, bound GF detected with antibody [panel C].
The target in experiment [19] is vascular endothelial growth factor (VEGF)-A165 (human) (UniProt P15692). The experiment in a line: ELISA; plate coated with 10 µg/mL laminin, 1 µg/mL VEGF-A165 in solution without or with 10 µM heparin, bound GF detected with antibody [panel A].
Experiment [20] has as its target placental growth factor (PlGF)-2 (human) (UniProt P49763). Kind of experiment: ELISA; plate coated with 10 µg/mL laminin, 1 µg/mL PlGF-2 in solution without or with 10 µM heparin, bound GF detected with antibody [panel B].
Experiment [21] has as its target vascular endothelial growth factor (VEGF)-A165 (human) (UniProt P15692). The experiment in a line: ELISA, laminin coated, GF 1 µg/mL, without or with 10 µM heparin.
The target of experiment [22] is placental growth factor (PlGF)-2 (human) (UniProt P49763). The description is as above.
Experiment [23] deals with fibroblast growth factor (FGF)-2 (human) (UniProt P09038). The description is as above.
The target of experiment [24] is vascular endothelial growth factor (VEGF)-A165 (human) (UniProt P15692). The experiment in a line: ELISA, FL-vWF coated, GF 1 µg/mL.
The target of experiment [25] is platelet-derived growth factor (PDGF)-BB (human) (UniProt P01127). The experiment in a line: ELISA, FL-vWF coated, GF 1 µg/mL.
The target in experiment [26] is fibroblast growth factor (FGF)-2 (human) (UniProt P09038). Kind of experiment: ELISA, FL-vWF coated, GF 1 µg/mL.
The target in experiment [27] is VEGF-A in human serum (human) (UniProt P15692). Kind of experiment: sandwich ELISA (anti-vWF capture, anti-VEGF-A detection) and immunoprecipitation with Western blot on human serum.

In the case of “pro-peptide containing recombinant vWF (from UniProt P04275 23-2813)”, the binding entry in experiment [1], in [2] and in experiment [3] was “binds” in each case.

On to “laminin-111 (from UniProt P25391 18-3075; P07942 22-1786; P11047 34-1609)”, for which the binding entry in experiment [4] was “no binding (tested: A450 0.1)”.

With “laminin-421 (from UniProt Q16363 25-1823; P55268 33-1798; P11047 34-1609)”, in experiment [4], the binding result is “no binding (tested: A450 0.1)”.

On to “laminin-211 (from UniProt P24043 23-3122; P07942 22-1786; P11047 34-1609)”, for which the binding entry in [4] was “no binding (tested: A450 0.1)”.

In the case of “laminin-332 (from UniProt Q16787 28-1724; Q13751 18-1172; Q13753 22-1193)”, the binding result in experiment [5] is on record as “binds”; in experiment [4], “no binding (tested: A450 0.1)”; in [6], “binds”; in [7] it was “binds”; in experiment [8], “binds”; with CXCL-12γ (human) it was “binds”. Moreover, the binding entry (in experiment [9]; in experiment [10]; in experiment [11]; in experiment [12]; in [13]; in the experiment with neurotrophin (NT)-3) was “binds” throughout. Also, in [14], the binding entry is “binds”.

On to “vWF in serum of a type 2B vWD patient carrying the R1341Q mutation (from UniProt P04275 764-2813)”, for which the binding entry in [15], in experiment [16] and in [17] was “binds” throughout.

Consider “laminin-221 (from UniProt P24043 23-3122; P55268 33-1798; P11047 34-1609)”, for which the binding entry in experiment [18], in experiment [19], in experiment [20], in experiment [21], in experiment [22] and in experiment [23] was “binds” in each case.

Regarding “laminin-521 (from UniProt O15230 36-3695; P55268 33-1798; P11047 34-1609)”, the binding entry in [4] is given as “no binding (tested: A450 0.1)”.

For the substance “laminin-511 (from UniProt O15230 36-3695; P07942 22-1786; P11047 34-1609)”, in experiment [4], the binding result is “no binding (tested: A450 0.1)”.

In the case of “laminin-411 (from UniProt Q16363 25-1823; P07942 22-1786; P11047 34-1609)”, the binding result in experiment [4] is recorded as “no binding (tested: A450 0.1)”.

On to “full-length recombinant human vWF (WT) (from UniProt P04275 764-2813)”, for which the binding result in experiment [24], in experiment [25] and in experiment [26] was “binds” each time.

As to “vWF in human serum from healthy donors (from UniProt P04275 764-2813)”, the binding result in [27] is “binds”.
